In US12322837B2, “Electrochemical reduction of halogenated compounds comprising a haloalkane” (Massachusetts Institute of Technology, priority 2021, dated 2025):
Some of these results come from one statement about several compounds together. For at least one compound, name, drawing or mass did not settle the structure.

Assay: Solubility/miscibility of reactants in DMSO or 0.1 M LiClO4/DMSO
Format: physicochemical
Details: temperature not stated
Description: To understand the effect of the chain length of the RF group, the discharge profiles of Ph-NO2-C6 (o) vs. Ph-NO2-C8 (o) and Ph-CN-C6 (p) vs. Ph-CN-C8 (p) were compared. As is shown in FIG. 5, up to 11 e- or 15 e- transfer per molecule (calculated based on capacities) can be obtained during discharge for C6 or C8 containing reactants, respectively. […] For example, Ph-CN-C6 (p) is liquid and miscible with DMSO at RT, but its C8 counterpart is solid at RT and is only soluble at elevated temperatures (e.g., 50° C.).

| Structure (SMILES) | solubility attained [mM] |
| --- | --- |
| O=[N+]([O-])c1ccccc1C=CC(F)(F)C(F)(F)C(F)(F)C(F)(F)C(F)(F)C(F)(F)F [Ph-NO2—C6 (o)] | > 2000 |
| O=[N+]([O-])c1ccccc1C=CC(F)(F)C(F)(F)C(F)(F)C(F)(F)C(F)(F)C(F)(F)C(F)(F)C(F)(F)F [Ph-NO2—C8 (o)] | > 2000 |
